This experiment has as its target Heterochromatin protein 1α (human (endogenous in Hucct1)) (UniProt P45973). Briefly: co-IP; 200 μg Hucct1 protein extract with 2.5 μg anti-HP1α antibodies on 20 μl Protein A + G Agarose beads, rotation overnight at 4°C; Western blot of the precipitate; goat normal IgG as control. (In general: Immunoblotting shows a protein as a band on a membrane.)

Chains of the proteins cited; added tags and fusions are not shown.
UniProt P45973: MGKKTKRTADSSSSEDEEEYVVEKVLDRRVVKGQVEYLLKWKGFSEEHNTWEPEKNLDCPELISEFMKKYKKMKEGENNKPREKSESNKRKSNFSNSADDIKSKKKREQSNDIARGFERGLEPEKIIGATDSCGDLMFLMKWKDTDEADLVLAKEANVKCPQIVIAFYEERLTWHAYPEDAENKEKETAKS

These are yes or no findings as the source states them, for the method shown. In cells and extracts the contact can be indirect. Some binding calls cover weakened binding; strength is not graded here.

B1: SUV39H1 (enzyme, UniProt O43463 1-412)
chain: MAENLKGCSVCCKSSWNQLQDLCRLAKLSCPALGISKRNLYDFEVEYLCDYKKIREQEYYLVKWRGYPDSESTWEPRQNLKCVRILKQFHKDLERELLRRHHRSKTPRHLDPSLANYLVQKAKQRRALRRWEQELNAKRSHLGRITVENEVDLDGPPRAFVYINEYRVGEGITLNQVAVGCECQDCLWAPTGGCCPGASLHKFAYNDQGQVRLRAGLPIYECNSRCRCGYDCPNRVVQKGIRYDLCIFRTDDGRGWGVRTLEKIRKNSFVMEYVGEIITSEEAERRGQIYDRQGATYLFDLDYVEDVYTVDAAYYGNISHFVNHSCDPNLQVYNVFIDNLDERLPRIAFFATRTIRAGEELTFDYNMQVDPVDMESTRMDSNFGLAGLPGSPKKRVRIECKCGTESCRKYLF
In the case of B1, the binding entry is on record as “binds”.

The values above are taken from PMC5217004.
